Measured data: PubChem BioAssay AID1224830 (NIAID, 2016)
Shown is a random part of about 18,000 reagents tested. Of all reagents, about 2,900 (16%) were called active. 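Calls are made per well; low scores hint the gene aids the LPS response, high scores that it dampens it.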 Unmarked entries are inactive. Repeated entries: four replicate wells of each siRNA pool. No sequences are given here.

- Screen: 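Regulators of TLR4 signalling towards TNF-alpha in macrophage-like cells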 (primary screen)
- System: human THP-1 monocytic leukaemia cells, TNF dual-luciferase reporter clone, PMA-differentiated to macrophage-like cells
- Reagent: siRNA pool against human genes, 50 nM
- Duration: LPS for 4 h, given about 3 days after siRNA transfection
- Challenge: bacterial LPS (TLR4 ligand), 10 ng/ml
- Measured: 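TNF firefly reporter luminescence divided by renilla, normalised to the plate median, then turned into a robust z-score for each replicate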
- Direction: TNF reporter robust z-score: higher = stronger TNF reporter response to LPS
- Hit rule: 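Each well counts as active if its z-score is over 2.8 or under -1.5; controls are left without a call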

For GMEB2, what was measured?
TNF reporter robust z-score: -0.14

What is on record for GMEB2?
TNF reporter robust z-score: 0.22

For GMEB2, how do the results read?
TNF reporter robust z-score: 0.74

What did the screen give for GMEB2?
TNF reporter robust z-score: 1.36

With SCN10A, how do the results read?
TNF reporter robust z-score: -0.67

With SCN10A, what was measured?
TNF reporter robust z-score: -0.31

Which result is listed for SCN10A?
TNF reporter robust z-score: 0.7

With SCN10A, what was measured?
TNF reporter robust z-score: 0.41

With MBD3L1, what was measured?
TNF reporter robust z-score: 1.03

With MBD3L1, what does the deposit list?
TNF reporter robust z-score: 0.42

Which result is listed for MBD3L1?
TNF reporter robust z-score: 0.01

What is on record for LAMA2?
TNF reporter robust z-score: -0.5

What is on record for LAMA2?
TNF reporter robust z-score: -0.68

Which result is listed for LAMA2?
TNF reporter robust z-score: -1.02

With LAMA2, how do the results read?
TNF reporter robust z-score: 0.41

What is on record for ZNF285?
TNF reporter robust z-score: 0.1

With ZNF285, what was measured?
TNF reporter robust z-score: -0.27

What did the screen give for ZNF285?
TNF reporter robust z-score: 0.49

With ZNF285, what was measured?
TNF reporter robust z-score: -0.46

With C1QTNF6, what was measured?
TNF reporter robust z-score: -1.87 (active)

Which result is listed for C1QTNF6?
TNF reporter robust z-score: -1.95 (active)

For C1QTNF6, what was measured?
TNF reporter robust z-score: -1.7 (active)

What did the screen give for C1QTNF6?
TNF reporter robust z-score: -1.59 (active)

How did the screen score PEAK3?
TNF reporter robust z-score: -0.22

What is on record for PEAK3?
TNF reporter robust z-score: 0.82

Which result is listed for PEAK3?
TNF reporter robust z-score: -0.74

For PEAK3, how do the results read?
TNF reporter robust z-score: -0.65

What did the screen give for CDC25A?
TNF reporter robust z-score: 1.47

How did the screen score CDC25A?
TNF reporter robust z-score: 1.27

For CDC25A, how do the results read?
TNF reporter robust z-score: 3.37 (active)

Which result is listed for CDC25A?
TNF reporter robust z-score: 2.49

For C1QTNF12, how do the results read?
TNF reporter robust z-score: 0.88

With C1QTNF12, how do the results read?
TNF reporter robust z-score: 0.07

What did the screen give for C1QTNF12?
TNF reporter robust z-score: 0.51

What did the screen give for C1QTNF12?
TNF reporter robust z-score: 0.48

With RANBP6, what does the deposit list?
TNF reporter robust z-score: -0.81

For RANBP6, how do the results read?
TNF reporter robust z-score: -0.39

With RANBP6, how do the results read?
TNF reporter robust z-score: -0.43

For RANBP6, what does the deposit list?
TNF reporter robust z-score: -0.32

7 entries from above, set out differently:
| gene symbol | TNF reporter robust z-score |
| --- | --- |
| C1QTNF6 | -1.59 (active) |
| PEAK3 | -0.22 |
| PEAK3 | 0.82 |
| PEAK3 | -0.74 |
| PEAK3 | -0.65 |
| CDC25A | 1.47 |
| CDC25A | 1.27 |

The list goes on.
What is on record for PRODH?
TNF reporter robust z-score: 0.13

How did the screen score PRODH?
TNF reporter robust z-score: 1.1

Which result is listed for PRODH?
TNF reporter robust z-score: 0

Which result is listed for PRODH?
TNF reporter robust z-score: 0.12

What is on record for VSX2?
TNF reporter robust z-score: 0.38

How did the screen score VSX2?
TNF reporter robust z-score: -0.33

Which result is listed for VSX2?
TNF reporter robust z-score: 0.1

What did the screen give for VSX2?
TNF reporter robust z-score: -0.17

How did the screen score ZNF767P?
TNF reporter robust z-score: -0.5

With ZNF767P, what was measured?
TNF reporter robust z-score: -0.26

With ZNF767P, how do the results read?
TNF reporter robust z-score: -0.34

With ZNF767P, what was measured?
TNF reporter robust z-score: -0.54

With PKP3, what does the deposit list?
TNF reporter robust z-score: -0.85

How did the screen score PKP3?
TNF reporter robust z-score: -0.83

For PKP3, how do the results read?
TNF reporter robust z-score: 2.48

With SHOX2, how do the results read?
TNF reporter robust z-score: -0.76

What did the screen give for SHOX2?
TNF reporter robust z-score: -1.02

For SHOX2, what was measured?
TNF reporter robust z-score: -0.33

What did the screen give for SHOX2?
TNF reporter robust z-score: 0.68

What is on record for SLC35G3?
TNF reporter robust z-score: -1.17

What did the screen give for SLC35G3?
TNF reporter robust z-score: -1.04

What is on record for SLC35G3?
TNF reporter robust z-score: -0.42

For SLC35G3, what was measured?
TNF reporter robust z-score: -0.66
